Measurements as given in publication PMC3303587.
These are yes or no findings as the source states them, for the method shown. In cells and extracts the contact can be indirect. Some entries that bind do so weakly or less than the wild type. Where a sequence is shown, tags or fusion partners need not be part of it.

Amino acid sequences for entries named in this document (tags omitted). Residues count along the entry.
UniProt P31040, residues 43-664: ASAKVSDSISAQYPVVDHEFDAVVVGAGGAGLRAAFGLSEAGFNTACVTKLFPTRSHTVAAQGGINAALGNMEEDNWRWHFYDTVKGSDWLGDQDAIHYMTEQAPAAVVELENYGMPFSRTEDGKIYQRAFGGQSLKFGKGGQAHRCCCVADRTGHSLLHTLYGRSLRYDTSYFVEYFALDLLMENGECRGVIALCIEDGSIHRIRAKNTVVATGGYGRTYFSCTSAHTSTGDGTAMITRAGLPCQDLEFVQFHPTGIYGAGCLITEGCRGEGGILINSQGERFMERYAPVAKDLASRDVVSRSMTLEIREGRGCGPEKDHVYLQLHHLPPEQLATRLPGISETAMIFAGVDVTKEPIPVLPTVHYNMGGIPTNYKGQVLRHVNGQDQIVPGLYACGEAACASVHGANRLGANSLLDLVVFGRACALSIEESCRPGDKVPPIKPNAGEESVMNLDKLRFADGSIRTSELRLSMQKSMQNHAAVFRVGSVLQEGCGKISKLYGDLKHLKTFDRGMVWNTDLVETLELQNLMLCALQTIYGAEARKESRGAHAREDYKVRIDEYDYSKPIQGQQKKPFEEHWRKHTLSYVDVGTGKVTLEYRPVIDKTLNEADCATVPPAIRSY

T1: Uncoupling protein-4 (UCP4), FLAG-tagged (human) (UniProt O95847)
T1 sequence: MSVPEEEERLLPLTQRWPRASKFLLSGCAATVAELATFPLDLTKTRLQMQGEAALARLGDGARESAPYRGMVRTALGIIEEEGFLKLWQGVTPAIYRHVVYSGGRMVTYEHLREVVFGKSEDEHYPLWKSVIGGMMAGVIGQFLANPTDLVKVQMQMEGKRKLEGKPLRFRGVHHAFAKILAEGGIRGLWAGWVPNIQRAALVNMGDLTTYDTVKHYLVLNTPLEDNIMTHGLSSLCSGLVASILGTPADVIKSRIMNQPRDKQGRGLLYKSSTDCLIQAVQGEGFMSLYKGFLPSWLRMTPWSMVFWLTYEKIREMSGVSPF


Experiments:
[1] = molecular target: T1, Uncoupling protein-4 (UCP4), FLAG-tagged (human); assay: co-IP; mitochondrial lysate (500 ug) of UCP4-overexpressing SH-SY5Y cells in native lysis buffer, pre-cleared with Protein-G-sepharose; IP with anti-FLAG or anti-Complex II subunit Fp overnight at 4 C, Protein-G-sepharose 1 h; washed with Tris buffer pH 7.2 with 0.01% Tween 20; western blot with anti-FLAG or anti-Fp
[2] = molecular target: Mitochondrial Complex II subunit Fp (70 kDa) (human (endogenous in SH-SY5Y)) (UniProt P31040); assay: as above

binding [1] | binding [2] | Molecule
binds |  | Mitochondrial Complex II subunit Fp (70 kDa) (from UniProt P31040 43-664)
 | binds | Uncoupling protein-4 (UCP4), FLAG-tagged (protein, UniProt O95847 1-323) MSVPEEEERLLPLTQRWPRASKFLLSGCAATVAELATFPLDLTKTRLQMQGEAALARLGDGARESAPYRGMVRTALGIIEEEGFLKLWQGVTPAIYRHVVYSGGRMVTYEHLREVVFGKSEDEHYPLWKSVIGGMMAGVIGQFLANPTDLVKVQMQMEGKRKLEGKPLRFRGVHHAFAKILAEGGIRGLWAGWVPNIQRAALVNMGDLTTYDTVKHYLVLNTPLEDNIMTHGLSSLCSGLVASILGTPADVIKSRIMNQPRDKQGRGLLYKSSTDCLIQAVQGEGFMSLYKGFLPSWLRMTPWSMVFWLTYEKIREMSGVSPF
